This experiment can be described thus: qHTS Assay for Modulators of Lamin A Splicing. As to conditions: HeLa LMNA splicing GFP/RFP minigene ratio, 48 h. The source says:
NCGC Assay Overview: Hutchinson-Gilford Progeria Syndrome (HGPS) is a pediatric premature aging disease caused by a spontaneous mutation in the lamin A/C (LMNA) gene. The mutation activates a cryptic splice site in the LMNA pre-mRNA which results in production of a pre-lamin A protein that cannot be processed properly. The mutant protein accumulates in the nucleus and negatively affects numerous cellular functions. Correction of the splicing defect in HGPS patient cells using a targeted oligonucleotide (exo11) leads to reversal of the cellular disease phenotypes. To identify small molecule modulators of aberrant LMNA splicing, a homogenous assay was constructed in HeLa cells that used a GFP containing minigene to report on correction of aberrant splicing in lamin A and a RFP (DsRed2) to report on cell viability, uniformity and nonspecific effects on the assay signal. This assay was adapted to laser-scanning microplate cytometry (Acumen, TTP Labtech) where miniaturization of the assay to a 1,536-well plate format was possible. References: Bowen, W. P.; Wylie, P. G. Application of Laser-Scanning Fluorescence Microplate Cytometry in High Content Screening. Assay Drug Dev Technol 2006;4:209-221. Scaffidi P, Misteli T. Reversal of the cellular phenotype in the premature aging disease Hutchinson-Gilford progeria syndrome. Nat.
NCGC Assay Protocol Summary: Reagents/Controls: Stable clones expressing DsRed2 and lamin A-EGFP were generated by Cell and Molecular Technologies in S3 HeLa cells. HeLa cells were prepared for the assay when they were 70-90% confluent. The cells were counted and resuspended in Opti-MEM I (no phenol red; Gibco), 2% FBS, 1% penicillin/ streptomycin (Gibco) at concentration of 120 cells/uL concentration. The suspension was passed through a Falcon basket filter with pore size 40um (Beckton Dickson). Control titrations: column […] 1536-well plate contained a sixteen point titration (1:2 dilutions) in duplicate of ancitabine (Sigma: A8598) beginning at 40 uM final concentration. Column 2 contained a sixteen point titration (1:2 dilutions) of cycloheximide beginning at 1.4 mM final concentration. Column 3 contained ancitabine at 40 uM and column 4 contained was the vehicle control (0.5% DMSO final concentration). Assay Steps: 5 uL of HeLa cells were plated in Aurora LoBase black clear bottom (cyclic-olefin polymer) 1536-well plates at a final density of 600 cells/well. Controls and library compounds were added with a 1536-well pin array using the Kalypsys pin-tool. The plates were then incubated for 48 hrs in a cell-culture incubator (37 °C; 5% CO2, 98% humidity). Following incubation the plates were read on the Acumen Explorer using the 488 nm laser. Data was collected on objects between 10 and 100 um in size. Cell objects were defined by a 15 um width x 10 um depth filter. The ratio of the total object intensity in PMT1 (500-530 nm emission; GFP) over PMT3 (575-640 nm emission; RFP) was calculated for analysis. Keywords: NIH Roadmap, MLSCN, MLI, MLSMR, qHTS, NCGC, lamin A, Progeria, RNA splicing.
A general note: qHTS replaces the single test concentration by a dilution series.

Where [1] appears, read: measured here: RFP viability control channel.
Setting [2] is: measured here: GFP splicing reporter channel.

For 36 compounds, AC50 results are on record in PubChem BioAssay AID1487 (National Center for Advancing Translational Sciences (NCATS), 2009).

By AC50 is commonly meant the concentration at which the activity in the assay is half-maximal.

The list shows a part of the results. The main result of the screen is listed elsewhere. These columns were measured beside it and carry no call. The list favours compounds with an active or inconclusive main result. The note in brackets gives the kind of curve behind each potency; many fits are weak.

With `CCOC(=O)Cc1c(C)nc2c(-c3cccc(Br)c3)c[nH]n2c1=O`, under setting [1], the AC50 is 2.51 µM [rising, partial curve, poor fit]. For the compound `O=C(c1ccc2c(c1)OCO2)N(Cc1cccs1)C1(C(=O)NC2CCCCC2)CCCCC1`, the AC50 under setting [2] is 0.178 µM [falling, full curve, poor fit]. Consider `O=C(Cn1nnc(-c2ccccc2NC(=O)C2CC2)n1)NC1CCCCC1`, for which, under setting [1], the AC50 is 0.1 µM [rising, full curve, poor fit]. On to `COc1ccc(NC(=S)N(CCc2c(C)[nH]c3ccc(C)cc23)Cc2cccs2)cc1`, for which the AC50 is 11.2 µM [rising, partial curve, poor fit] under setting [2] and 14.1 µM [rising, partial curve] under setting [1]. As to `CN1CCN(C2=C(Cl)C(=O)N(c3ccc(Cl)c(Cl)c3)C2=O)CC1`, the AC50 under setting [2] is 14.1 µM [rising, single point] and the AC50 under setting [1] is 31.6 µM [rising, single point]. For the compound `CC(=O)Nc1ccc(S(=O)(=O)N(C)S(=O)(=O)c2ccc(F)cc2)cc1`, the AC50 reads like this: under setting [2], 17.8 µM [rising, single point]; under setting [1], 17.8 µM [rising, single point]. `CCNc1nc(NC(C)(C)C)nc(SC(C(C)=O)C(C)=O)n1`: under setting [1], the AC50 was 3.98 µM [rising, partial curve]. For `O=C(Cn1nnc(-c2ccccc2F)n1)Nc1cccc2ncccc12`, the AC50 runs as follows: under setting [2], 4.47 µM [rising, partial curve]; under setting [1], 3.16 µM [rising, full curve, poor fit]. In the case of `O=[N+]([O-])c1ccc(COc2cccc(CNc3ccc(Br)cc3)c2)cc1`, the AC50 under setting [2] was 28.2 µM [rising, single point]. For `Cc1[nH]c2ccc(F)cc2c1CCN(Cc1ccncc1)C(=S)Nc1ccc(F)cc1`, the AC50 was 5.62 µM [falling, single point] under setting [2] and 5.62 µM [falling, single point] under setting [1]. For `S=C(NCCC1=CCCCC1)Nc1ccccc1`, under setting [2], the AC50 was 14.1 µM [rising, single point]. On to `CC(C)(C)c1cc(C(=O)N/N=C/c2ccc(O)cc2)n(-c2ccccc2)n1`, for which the AC50 under setting [1] is 0.316 µM [rising, full curve, poor fit]. Same read-out and setting: with `CCOC(=O)c1c(N2C(=O)C=CC2=O)sc(C)c1C` the figure was 14.1 µM [falling, single point]. With `COc1ccc(-n2ccn(CC(=O)NCc3ccc(C)cc3)c(=O)c2=O)cc1OC`, the AC50 was 12.6 µM [falling, single point] under setting [2] and 17.8 µM [falling, single point] under setting [1]. `Cc1ccc(NC(=S)/N=C(\N)Nc2nc(C)c3ccccc3n2)cc1C`: the half-maximal activity concentration (AC50) under setting [1] was 2.51 µM [rising, full curve]. For the compound `COc1ccc2c(c1)C1=NN(/C(C)=C/C(C)=O)C(c3cccc(F)c3)C1CC2` (stereo not given), the AC50 under setting [2] is 8.91 µM [rising, partial curve]. Take `Cn1nnnc1SC(C(=O)Nc1cccc(C(F)(F)F)c1)c1ccccc1` (stereo not given): the AC50 under setting [1] was 12.6 µM [rising, single point]. Still for that read-out and setting: with `COC(=O)c1c(-c2ccncc2)csc1NC(=O)c1ccoc1C` the figure was 3.98 µM [rising, single point]; with `c1ccc(N2CCOCCOCCOCCOCCOCC2)cc1`, 3.98 µM [falling, full curve, poor fit].

With `Cc1cc(C)n(CC(=O)O)n1`, the AC50 was 35.5 µM [rising, single point] under setting [2] and 35.5 µM [rising, single point] under setting [1]. On to `CCOC(=O)c1c(C)[nH]c(C(=O)COC(=O)C2(C)CC2(Cl)Cl)c1C` (stereo not given), for which the AC50 is, setting by setting: under setting [2], 35.5 µM [rising, single point]; under setting [1], 14.1 µM [rising, single point]. For `Cc1ccc(C)c(N2CCN(C(=O)c3cc(S(=O)(=O)N4CCC(C)CC4)cn3C)CC2)c1`, the AC50 under setting [2] was 0.141 µM [falling, single point]. For the compound `CCOc1ccc(C2NC(=O)C(C#N)=C(S)N2c2cccc(C)c2)cc1OC` (stereo not given), the AC50 under setting [1] is 35.5 µM [falling, partial curve, poor fit]. As to `O=C(OCc1cc(=O)n2cc(Br)ccc2n1)c1ccc(Cl)c(S(=O)(=O)NCc2ccccc2)c1`, the AC50 was 1.78 µM [rising, partial curve] under setting [2] and 0.282 µM [rising, full curve, poor fit] under setting [1]. For the compound `CC(C)c1ccc(-n2cccc2/C=C2/C(=N)N3C=CSC3=NC2=O)cc1`, the AC50 by setting is: under setting [2], 35.5 µM [rising, single point]; under setting [1], 35.5 µM [rising, single point]. Turning to `COC(=O)N/N=C\C=C\c1ccc2c(c1)OCO2`, the AC50 under setting [1] is 0.0794 µM [rising, full curve, poor fit].

Regarding `COc1ccc2oc(=O)c(-c3cn4c(n3)sc3cc(F)ccc34)cc2c1`, under setting [2], the AC50 is 0.02 µM [rising, full curve]. Same read-out and setting: with `CCOc1ccc(/C=N/NC(=O)CN2CCCCCCC2)cc1` the figure was 11.2 µM [falling, partial curve, poor fit]. With `CCCCCOc1ccc(CSc2ncn[nH]2)cc1`, the AC50 under setting [1] is 31.6 µM [rising, single point].

Turning to `CCCn1c2ccccc2c2cnn(CC(=O)N(Cc3ccccc3)C(C)C)c(=O)c21`, the AC50 is, setting by setting: under setting [2], 22.4 µM [falling, single point]; under setting [1], 20 µM [falling, single point]. Regarding `N#CNC(=Nc1cccc(F)c1)SCc1ccccc1F`, the AC50 under setting [1] is 11.2 µM [rising, partial curve]. Same read-out and setting: with `O=S(=O)(CCc1nc2ccccc2[nH]1)c1ccc(Br)cc1` the figure was 22.4 µM [rising, single point].

As to `CC1(C)C(=O)N(CCN2CCC(C(=O)c3ccc(F)cc3)CC2)c2ccccc21`, the AC50 was 22.4 µM [falling, single point] under setting [2] and 14.1 µM [falling, single point] under setting [1]. In the case of `CC(=O)Nc1cccc(OCC(=O)NCCC2=CCCCC2)c1`, the AC50 is, setting by setting: under setting [2], 0.0316 µM [falling, full curve, poor fit]; under setting [1], 0.0282 µM [falling, partial curve, poor fit]. Consider `Cc1nnnn1/C(=C\c1ccccc1)C(=O)OCC(=O)N(C)C1CCS(=O)(=O)C1` (stereo not given), for which the AC50 under setting [1] was 0.02 µM [falling, full curve, poor fit].

Consider `Cc1nc2ccccn2c1C(=O)NNS(=O)(=O)c1ccc(C(C)(C)C)cc1`, for which the AC50 runs as follows: under setting [2], 5.62 µM [rising, partial curve]; under setting [1], 3.98 µM [rising, full curve].
